# The whole screen tested about 360,000 compounds, of which about 10,000 (2.8%) were called active. Inconclusive results, whose numbers are uncertain, are shown with a selection of clear calls. The call rests on the fitted dose curve; in most records, active means well fitted inhibition curve with a large enough effect; inconclusive means small, poorly fitted or top-dose-only effect; inactive means flat fitted curve, though single readings scatter. Potencies of inconclusive entries are doubtful fits and often do not repeat.
# Chains of the proteins cited; added tags and fusions are not shown.
# UniProt P53350, whole entry, looked up: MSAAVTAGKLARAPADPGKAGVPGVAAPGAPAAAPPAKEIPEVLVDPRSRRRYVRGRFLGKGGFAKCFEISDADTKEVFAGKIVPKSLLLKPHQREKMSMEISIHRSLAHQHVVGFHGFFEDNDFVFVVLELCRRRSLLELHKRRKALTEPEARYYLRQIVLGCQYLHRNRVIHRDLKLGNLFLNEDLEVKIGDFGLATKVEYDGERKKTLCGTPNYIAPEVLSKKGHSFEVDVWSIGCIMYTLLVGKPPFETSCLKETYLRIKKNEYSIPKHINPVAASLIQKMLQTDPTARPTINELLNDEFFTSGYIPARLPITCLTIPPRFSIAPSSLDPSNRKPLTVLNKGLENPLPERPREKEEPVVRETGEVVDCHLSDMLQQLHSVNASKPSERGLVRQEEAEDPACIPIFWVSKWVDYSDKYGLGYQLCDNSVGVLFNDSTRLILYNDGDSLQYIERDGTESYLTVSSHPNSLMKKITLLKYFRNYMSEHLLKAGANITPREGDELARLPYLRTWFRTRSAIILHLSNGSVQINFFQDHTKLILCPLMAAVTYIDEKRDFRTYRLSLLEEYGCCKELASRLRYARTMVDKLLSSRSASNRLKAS
# Biological target: Serine/threonine-protein kinase PLK1 (Homo sapiens) (UniProt P53350)
# Test: qHTS for Inhibitors of PLK1-PDB (polo-like kinase 1 - polo-box domain): Primary Screen; further: nearly all actives have a fitted effect of over 65% in size; on max response, negative = inhibition: series mostly up to about 57 µM
# Conditions: Plk1 PBD binding of FITC phosphopeptide, fluorescence polarization
# On the % scale 0 is the no-effect control and ±100 the full control effect; potency means the concentration at half of the fitted maximal effect.
Structure (SMILES),"max response, negative = inhibition",Potency
CCN(C(=O)COC(=O)C12CC3CC(CC(NC(C)=O)(C3)C1)C2)C1CCCCC1,inactive: 0.108%,
Nc1nc(-c2cccs2)c(NC(=O)c2ccccc2)s1,,"inconclusive: 37.7 µM [inhibitor, single point]"
CCc1ccc(NC(=O)NCCN2CCc3ccccc3C2)cc1,,"inconclusive: 23.8 µM [inhibitor, partial curve]"
Cc1cc(C(=O)N2CCCC(N3CCN(c4cccc(C(F)(F)F)c4)CC3)C2)n[nH]1 (stereo unspecified),inactive: -3.34%,
CCNC(=S)Nc1ccc2c(c1)c(=O)n(C)n2Cc1cccc(C(F)(F)F)c1,,active: 26.7 µM
Cc1cccc(N=N/C(=C\O)C(=O)c2cccs2)c1,inactive: -15.5%,
Cc1nc2c(C#N)c[nH]n2c(=O)c1CCO,,active: 9.47 µM
Cc1sc2nc(SCC(=O)Nc3cccc(C(=O)O)c3)[nH]c(=O)c2c1C,,"inconclusive: 21.2 µM [inhibitor, partial curve]"
O=C1CCCN2N=C(SCC(=O)Nc3ccc([N+](=O)[O-])cc3)SC2=N1,,active: 37.7 µM
COc1ccc(N/C(=C2\CCCC2=O)C2CCCCC2)cc1,,"inconclusive: 26.7 µM [inhibitor, single point]"
Cc1[nH]nc2c1C(=O)CCC2,,active: 7.52 µM
O=S(=O)(Nc1nnc(C(F)(F)F)s1)c1ccc(Cl)cc1,inactive: -17.6%,
O=C(Nc1ccccn1)c1ccc([N+](=O)[O-])cc1Cl,inactive: -2.54%,
COc1cc(C(=S)N2CCOCC2)cc(OC)c1O,,"inconclusive: 47.4 µM [inhibitor, single point]"
OCCn1c(-c2ccc(F)cc2)csc1=Nc1ccccc1,inactive: -1.49%,
Oc1c(Br)cc(Br)cc1/C=N/NC(=S)N[C@H]1CC2C=CC1C2 (stereo partly specified),,"inconclusive: 26.7 µM [inhibitor, partial curve]"
COc1ccccc1C(=O)Nc1ccccc1SC(=O)c1ccccc1OC,,"inconclusive: 13.4 µM [inhibitor, partial curve]"
OCc1cn(-c2ccccc2)nc1-c1cc2ccccc2o1,inactive: 5.4%,
Cn1c2c(c(=O)n(C)c1=O)C(c1ccc(Cl)cc1)C(C#N)=C(N)O2 (stereo unspecified),,"inconclusive: 16.8 µM [inhibitor, partial curve]"
Cc1[nH][nH]c(=O)c1C(c1ccc(Br)cc1)c1c(C)[nH][nH]c1=O,,"inconclusive: 10.6 µM [inhibitor, partial curve]"
Oc1ccc2cc(Br)ccc2c1CN1CCCC1,,"inconclusive: 33.6 µM [inhibitor, partial curve]"
Cc1cc(Br)ccc1NC(=O)CN(C)C(=O)CSC(=S)N1CCCC1,,"inconclusive: 26.7 µM [inhibitor, partial curve]"
CC1(C)CC(=O)C(C(C2=C(O)CC(C)(C)CC2=O)c2cccc(O)c2)C(=O)C1 (stereo unspecified),,"inconclusive: 21.2 µM [inhibitor, partial curve]"
Cc1ccc2nc(SCC(=O)Nc3ccc4[nH]c(=O)[nH]c4c3)[nH]c2c1,inactive: -26.5%,
O=C1NC(=S)SC1=C1CCCCCC1,,"inconclusive: 21.2 µM [inhibitor, partial curve]"
CCSC1=C(C#N)C2(CCCC2)C(C#N)=C(N)N1,,active: 2.99 µM

# Of the compounds above, these have a CF3 group:
Structure (SMILES),"max response, negative = inhibition",Potency
Cc1cc(C(=O)N2CCCC(N3CCN(c4cccc(C(F)(F)F)c4)CC3)C2)n[nH]1 (stereo unspecified),inactive: -3.34%,
CCNC(=S)Nc1ccc2c(c1)c(=O)n(C)n2Cc1cccc(C(F)(F)F)c1,,active: 26.7 µM
O=S(=O)(Nc1nnc(C(F)(F)F)s1)c1ccc(Cl)cc1,inactive: -17.6%,

# Continuation.

Structure (SMILES),"max response, negative = inhibition",Potency
N#C/C(=C\c1cccc(O)c1)C(=O)N1CCCCC1,inactive: -8.45%,
CC(=O)N1CCN(CC(=O)Nc2cc([N+](=O)[O-])ccc2Cl)CC1,inactive: -1.91%,
CC(=O)Oc1ccc2c(c1)C(=O)CCCCCC(=O)O2,inactive: -12.1%,
O=S(=O)(Nn1c(O)c(C=C2N=c3ccccc3=N2)sc1=S)c1ccccc1,,"inconclusive: 33.6 µM [inhibitor, single point]"
CN(C)Cc1cc(O)c(CN(C)C)cc1O,,"inconclusive: 7.52 µM [inhibitor, single point]"
COc1cccc(CN(C)Cc2c(O)ccc3ccccc23)c1,,active: 16.8 µM
O=C(CCCn1cnc([N+](=O)[O-])n1)Nc1ccc(Cl)c(Cl)c1,,"inconclusive: 37.7 µM [inhibitor, single point]"
O=C1C(=Cc2ccco2)C(=O)c2ccccc21,,"inconclusive: 11.9 µM [inhibitor, partial curve]"
Fc1ccccc1Nc1n[nH]c(=S)s1,,active: 29.9 µM
COc1ccc(-c2nc(=S)[nH][nH]2)cc1,,"inconclusive: 26.7 µM [inhibitor, single point]"
CSC1=NCCN1C(=O)C(C)Oc1ccccc1 (stereo unspecified),,active: 29.9 µM
Cc1nn(CCC(=O)NCCc2ccccc2Cl)c(=O)c2nn(-c3ccccc3)c(C)c12,,active: 29.9 µM
CCOC(=O)C1(Cc2ccc(OC)cc2)CCN(C(=O)c2cc(C)nn2C)CC1,inactive: -12.7%,
O=C(CCc1c[nH]c2ccccc12)N1CCN(c2ccc(O)cc2)CC1,,active: 26.7 µM
O=C(COC(=O)c1ccc(F)cc1F)Nc1cccnc1Cl,inactive: 2.42%,
O=C(Oc1ccc(C(=S)N2CCOCC2)cc1Cl)c1ccccc1F,,"inconclusive: 29.9 µM [inhibitor, partial curve]"
Cc1ccc(-n2c(=S)[nH]c3[nH]ncc3c2=O)cc1,,"inconclusive: 26.7 µM [inhibitor, single point]"
COc1ccc(S(=O)(=O)Nc2ccccc2OC)cc1C,inactive: -1.33%,
Cc1nnc2c(NC3CCCC3)nc3ccccc3n12,,"inconclusive: 29.9 µM [inhibitor, single point]"
O=C1N=C(N2CCC(Cc3ccccc3)CC2)S/C1=C/c1cn[nH]c1-c1ccccc1,inactive: -2.93%,
COc1ccc(C(=O)N/C(=C/c2cccnc2)C(=O)N2CCN(C)CC2)cc1OC,inconclusive: -22% [inhibitor],
CCN(CC)C(=O)/C=C/c1ccc(OC)c(S(=O)(=O)N2CCCCC2)c1,inactive: -1.66%,
O=c1[nH]c2ccccc2n2c(-c3ccccc3)nnc12,,active: 0.947 µM
COc1ccc2c(C)cc(SCC(=O)NC3CCCC3)nc2c1,,"inconclusive: 23.8 µM [inhibitor, partial curve]"
O=C(CNC(=O)c1ccco1)OCC(=O)c1ccc([N+](=O)[O-])cc1,,"inconclusive: 37.7 µM [inhibitor, single point]"
CNC(=O)Nc1cc(C(C)(C)C)no1,,active: 10.6 µM

# Quoted at random: two entries already listed, in no set order.
Structure (SMILES),"max response, negative = inhibition",Potency
Cc1ccc2nc(SCC(=O)Nc3ccc4[nH]c(=O)[nH]c4c3)[nH]c2c1,inactive: -26.5%,
Oc1ccc2cc(Br)ccc2c1CN1CCCC1,,"inconclusive: 33.6 µM [inhibitor, partial curve]"

# Next records.

Structure (SMILES),"max response, negative = inhibition",Potency
CC(C)(C)NC(=O)C(c1ccc(O)cc1)N(C(=O)CCC(=O)Nc1ccccn1)c1ccc(F)cc1 (stereo unspecified),inactive: -0.096%,
O=C(O)c1cccc2cccc(-c3c4ccc(=O)c(O)c-4oc4c(O)c(O)ccc34)c12,,active: 4.74 µM
CN1CCc2c(sc(NC(=O)Cc3ccccc3)c2C#N)C1,,"inconclusive: 29.9 µM [inhibitor, partial curve]"
Cc1cccc(C)c1OCC(=O)Nc1ncn[nH]1,inactive: -1.91%,
CCOCCCn1c(SCC(=O)Nc2ccc(OC)cc2)nc2ccccc2c1=O,,"inconclusive: 26.7 µM [inhibitor, single point]"
COc1cccc(-c2nc(-c3ccc4c(c3)-c3ccccc3S4(=O)=O)c(-c3ccccc3)[nH]2)c1OC,,"inconclusive: 18.9 µM [inhibitor, partial curve]"
Cc1ccc2c(c1)C(=C(C#N)C#N)C(=O)N2CCN1CCCCC1,,"inconclusive: 8.44 µM [inhibitor, single point]"
CCOc1cc(/C=C2\C(=O)N(c3cccc(C(F)(F)F)c3)C(=O)c3ccccc32)ccc1O,,"inconclusive: 9.47 µM [inhibitor, partial curve]"
CN(CC(=O)Nc1sccc1C#N)C1CCCCC1,,"inconclusive: 21.2 µM [inhibitor, partial curve, poor fit]"
Cc1nn(-c2ccccc2)c2c1C(c1ccc(F)cc1)C(C#N)=C(N)O2 (stereo unspecified),,active: 23.8 µM
O=C(CSc1nc2ccccc2o1)Nc1nc(-c2ccccc2)cs1,inactive: -13.9%,
Cc1nn2c(=S)[nH]nc2[nH]c1=O,,"inconclusive: 26.7 µM [inhibitor, single point]"
CC(=O)c1cccc(OCC(=O)N(C)CC(=O)Nc2ccc(F)cc2)c1,,active: 29.9 µM
Cc1ccc(C)c(NC(=O)CS(=O)(=O)c2cccc3nsnc23)c1,inconclusive: -34.1% [inhibitor],
C=C1C(=O)[C@]23C[C@H]1CCC2[C@]1(C)CCC[C@@](C)(C(=O)O)C1C[C@@H]3O (stereo partly specified),,"inconclusive: 23.8 µM [inhibitor, partial curve]"
COc1ccc(Oc2ccccc2C=O)cc1,inactive: -8.31%,
O=C1C(Cc2cccc([N+](=O)[O-])c2)S/C(=N/N=C/c2ccco2)N1c1ccccc1 (stereo unspecified),,"inconclusive: 67 µM [inhibitor, partial curve]"
Cc1ccc(-c2ccc(=O)n(CC(=O)NCCN(CC(C)C)CC(C)C)n2)cc1,inactive: -10.6%,
OC1CCN(C(=S)Nc2ccc(Nc3ccccc3)cc2)CC1,,"inconclusive: 23.8 µM [inhibitor, partial curve]"
Cc1ccc(-c2nnc(C)c(N3CCOCC3)n2)cc1,,"inconclusive: 37.7 µM [inhibitor, single point]"
O=C(CSc1nnnn1-c1cccc2c1CCCC2)N1CCCC1,,active: 4.74 µM
CN1CCc2c(sc3c2c(=O)n(-c2ccccc2)c2nncn32)C1,,"inconclusive: 37.7 µM [inhibitor, partial curve]"
O=C(CSc1nccc(=O)[nH]1)N1CCN(c2ccccc2)CC1,,active: 16.8 µM
O=C(NNC(=O)c1ccc2[nH]c(=O)c(=O)[nH]c2c1)c1cccc(Br)c1,inactive: -18.3%,
